# From PubChem BioAssay AID2685 (National Center for Advancing Translational Sciences (NCATS), 2010)
# This is one part of the list. Shown are side measurements of this screen, not its main read-out; they come without a call. Most of these compounds were active or inconclusive in the main read-out, so they are no random draw. Words in brackets tell the shape of the fitted curve; partial curves, single points and poor fits give uncertain potencies.
# Test: qHTS Assay for Lipid Storage Modulators in Drosophila S3 Cells;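 for cell number change: cells counted by Cell Tracker Red CMTPX staining in the red channel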
# Conditions: BODIPY lipid droplet fluorescence, 18-24 h; for cell number change: measured here: cell count max response, cells fed with added oleic acid
# Summary of the method: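 Drosophila S3 cells got compounds at several concentrations plus oleic acid (400 uM solution). Laser-scanning cytometry with 488 nm excitation read lipid droplets at 500-530 nm and cells at 575-640 nm. Percent activity was relative to 20 uM Triacsin C.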
# [1] = measured here: cell number channel AC50, cells fed with added oleic acid
# [2] = measured here: lipid fluorescence (Fed channel) AC50, cells fed with added oleic acid
compound,measurement,setting,value
C=C(C)C1CC=C(C)/C(=N/NC(=O)CNc2ccc(OCC)cc2)C1 (stereo not given),cell number change,,-28.7%
same,AC50,[1],"4.61 µM [falling, full curve, poor fit]"
Cc1ccc(NS(=O)(=O)c2ccc(C)c(NC(=O)COc3ccccc3)c2)c(C)c1,cell number change,,31%
same,AC50,[1],"29.1 µM [rising, single point]"
same,AC50,[2],"6.51 µM [rising, full curve]"
COc1ccc(Oc2cn[nH]c2-c2ccc(O)cc2O)cc1,cell number change,,-15.4%
same,AC50,[2],"25.9 µM [rising, single point]"
Nc1nc(Cl)cc(NCCc2ccc(O)cc2)n1,cell number change,,26.6%
CCn1c(CSc2nnc(-c3ccoc3C)n2C)nc2cc(S(=O)(=O)N(C)C)ccc21,cell number change,,12%
same,AC50,[2],"6.51 µM [rising, full curve, poor fit]"
Cc1ccc(CNC(=O)CN2C(=O)NC(C)(c3cccc(Br)c3)C2=O)cc1 (stereo not given),cell number change,,85.6%
same,AC50,[1],"10.3 µM [rising, partial curve]"
same,AC50,[2],"29.1 µM [rising, single point]"
O=C(c1cnc2sccn2c1=O)N(Cc1ccccc1)c1ccccn1,cell number change,,4.38%
same,AC50,[2],"0.0058 µM [falling, full curve, poor fit]"
O=C1C(CCCNC(=S)NCc2ccccc2)NC(=S)N1Cc1ccccc1 (stereo not given),cell number change,,-44.1%
same,AC50,[1],"16.4 µM [falling, single point]"
same,AC50,[2],"14.6 µM [falling, partial curve]"
Cc1ccc(C(=O)Nc2ccccc2N2CCN(C(=O)C(C)C)CC2)cc1,cell number change,,6.19%
same,AC50,[2],"2.06 µM [falling, partial curve]"
Cc1ccccc1-n1nc(CSc2nc3ccccc3[nH]2)c(-c2ccccc2)c1N,cell number change,,-19.2%
same,AC50,[2],"23.1 µM [falling, single point]"
Cn1ncc([N+](=O)[O-])c1C(=O)Nc1cccc2ccccc12,cell number change,,11.7%
same,AC50,[2],"29.1 µM [falling, partial curve]"
CCOC(=O)c1cc2sccc2n1CC(=O)OC,cell number change,,6.42%
same,AC50,[2],"16.4 µM [rising, single point]"
CCOc1ccc(CCNC(=O)c2cn(C)c3ccc(S(=O)(=O)N4CCOCC4)cc3c2=O)cc1OCC,cell number change,,-5.19%
COc1ccccc1-n1c(SCC(=O)NCC2CCCO2)nc2c([nH]c3ccccc32)c1=O (stereo not given),cell number change,,37.1%
same,AC50,[1],"18.4 µM [rising, single point]"
same,AC50,[2],"29.1 µM [rising, single point]"
Cc1cnc(C(=O)OCC(=O)C23CC4CC(CC(C4)C2)C3)cn1,cell number change,,-4.42%
C=CCN(CC=C)S(=O)(=O)c1ccc(NC(=S)NC(=O)c2ccco2)cc1,cell number change,,-1.84%
Cn1c(=O)c(C#N)c(-c2ccccc2)n2cnnc12,cell number change,,-70.6%
same,AC50,[1],"32.6 µM [falling, single point]"
CN(C)CCN(C(=O)c1ccc(Br)s1)c1nc2cc3c(cc2s1)OCCO3,AC50,[2],"6.51 µM [falling, single point]"
CC(C)(C)NC(=O)COc1coc(CN2CCN(C(=O)c3ccco3)CC2)cc1=O,cell number change,,-1.98%
same,AC50,[2],"0.164 µM [rising, full curve, poor fit]"
NC(=O)Nc1ccc(Oc2c(F)c(F)c(F)c(F)c2F)cc1,cell number change,,-1.33%
Cc1ccc(S(=O)(=O)N(CC(=O)NCc2ccco2)C2CCCCC2)cc1,cell number change,,-24.4%
S=C(NCc1ccc2[nH]c3c(c2c1)CCCC3)Nc1ccccc1Cl,cell number change,,-43.6%
same,AC50,[1],"29.1 µM [falling, single point]"
same,AC50,[2],"20.6 µM [falling, single point]"
CCCc1cc2c(cc1NC(=O)c1ccccc1F)OCO2,cell number change,,16.2%
same,AC50,[2],"0.517 µM [rising, full curve]"
Cc1ccc(-c2cc(C(=O)N/N=C/C=C/c3ccccc3)n[nH]2)s1,cell number change,,4.32%
same,AC50,[2],"29.1 µM [rising, single point]"
Cc1cc(Cl)ccc1Oc1ncc(CN2CCN(c3ccccc3)CC2)s1,cell number change,,19.5%
same,AC50,[1],"2.59 µM [rising, single point]"
same,AC50,[2],"6.51 µM [rising, single point]"
Cc1ccc(S(=O)(=O)c2ccc(Cl)cc2)cc1S(=O)(=O)NC(C(=O)O)C(C)C (stereo not given),AC50,[1],"0.00517 µM [falling, full curve, poor fit]"
CCN(CC)C(=O)C1CCCN(c2ccc([N+](=O)[O-])cc2/C=N/NC(=O)c2cccc(Br)c2)C1 (stereo not given),cell number change,,74.3%
same,AC50,[1],"29.1 µM [rising, single point]"
same,AC50,[2],"18.4 µM [rising, single point]"
Cc1c(N(C)S(=O)(=O)c2cccc(C(=O)NCC3CCCO3)c2)c(=O)n(-c2ccccc2)n1C (stereo not given),cell number change,,-49.3%
same,AC50,[1],"20.6 µM [falling, partial curve]"
same,AC50,[2],"5.8 µM [falling, partial curve]"
O=C(N/N=C/C(Cl)=C/c1ccccc1)c1ccccn1,cell number change,,6.41%
same,AC50,[2],"0.058 µM [rising, full curve, poor fit]"
COc1ccccc1N1CCN(C(=O)c2cc3c(s2)CCCCC3)CC1,cell number change,,4.69%
same,AC50,[2],"1.16 µM [falling, full curve]"
Cc1[nH]n(-c2cccc(Cl)c2)c(=O)c1C=NCC(C)C,cell number change,,52.6%
same,AC50,[1],"18.4 µM [rising, single point]"
same,AC50,[2],"29.1 µM [rising, single point]"
CCOC(=O)CSc1nc2sc3c(c2c(=O)n1CC)CC(C)(C)OC3,cell number change,,-3.03%
Cc1ccc(S(=O)(=O)N(C(=O)c2ccncc2)c2ccc(OC(=O)c3ccncc3)cc2)cc1,cell number change,,-4.44%
same,AC50,[2],"29.1 µM [falling, partial curve]"
Cc1cc(S(=O)(=O)N(Cc2ccc(C(C)(C)C)cc2)Cc2cccs2)ccc1-n1cnnn1,cell number change,,-34.1%
same,AC50,[1],"2.31 µM [falling, partial curve]"
CCN(CC)CCNC(=O)c1ccc(NC(=O)c2c(F)cccc2Cl)cc1,cell number change,,47.1%
same,AC50,[1],"29.1 µM [rising, single point]"
Cc1cc(C)n(C(=O)c2ccc(NC(=O)C3COc4ccccc4O3)cc2)n1 (stereo not given),cell number change,,-17.9%
O=C(Nc1cc(-c2nc3ncccc3o2)ccc1Cl)c1ccco1,cell number change,,-29%
same,AC50,[2],"1.84 µM [falling, partial curve]"
CCCn1c(SCC(=O)c2[nH]c(C)c(C(C)=O)c2C)n[nH]c1=O,cell number change,,6.74%
Cc1ccc(S(=O)(=O)N2[C@@H](c3ccc(Cl)cc3)C(C(=O)O)=CC[C@H]2c2ccc3c(c2)OCO3)cc1,cell number change,,-19%
CCOC(=O)C1CCCN(C(=O)c2ccc(Cl)cc2)C1 (stereo not given),cell number change,,146%
same,AC50,[1],"16.4 µM [rising, partial curve]"
same,AC50,[2],"0.651 µM [rising, single point]"
Cc1noc(C)c1CSc1ccccc1C(=O)N(C)CC(=O)Nc1cccc(F)c1,cell number change,,-10.5%
same,AC50,[2],"4.11 µM [falling, full curve, poor fit]"
COc1cc(/C=C/C(=O)Nc2ccc(C)cc2)cc(OC)c1OC,AC50,[2],"0.461 µM [rising, full curve]"
CC1CN=C(N(C(=S)Nc2ccccc2)c2cccc(C(F)(F)F)c2)S1 (stereo not given),cell number change,,6.83%
same,AC50,[2],"0.731 µM [falling, single point]"
COc1ccc(CCNC(=O)c2ccc(CS(=O)Cc3ccc(Cl)cc3)o2)cc1OC (stereo not given),AC50,[2],"6.51 µM [falling, single point]"
O=[N+]([O-])c1cccc(N(CC2CO2)S(=O)(=O)c2ccccc2)c1 (stereo not given),cell number change,,-3.04%
CCOC(=O)c1sc(-c2ccc(C)cc2)c(C#N)c1C,cell number change,,24.7%
same,AC50,[2],"5.8 µM [rising, partial curve]"
CCOc1ccc(C(C)=O)cc1COc1cccnc1[N+](=O)[O-],cell number change,,-9.21%
same,AC50,[2],"35.5 µM [rising, single point]"
Cn1c(/C(C#N)=C/Nc2ccccn2)nc2ccccc21,AC50,[1],"2.59 µM [rising, partial curve]"
same,AC50,[2],"3.66 µM [rising, partial curve]"
CC(NC(=O)COC(=O)c1ccc2c(c1)OCO2)c1ccccc1 (stereo not given),AC50,[2],"0.146 µM [rising, full curve, poor fit]"
COC(=O)c1c(C)cc(C)n2c1nc1ccccc12,cell number change,,36.6%
same,AC50,[1],"7.31 µM [rising, partial curve, poor fit]"
same,AC50,[2],"6.51 µM [rising, full curve]"
CCOC(=O)c1ccccc1NC(=O)c1ccccc1N(C)S(C)(=O)=O,cell number change,,10.3%
same,AC50,[2],"29.1 µM [falling, single point]"
CC(C)(C)C(=O)O/N=C(\N)COc1cccc(Cl)c1,cell number change,,5.81%
CCN(Cc1ccccc1)C(=O)CSc1ncn[nH]1,cell number change,,-0.451%
same,AC50,[2],"6.51 µM [falling, single point]"
Cc1ccc(OCC(=O)N2CCc3ccccc3C2)c([N+](=O)[O-])n1,cell number change,,26.5%
same,AC50,[1],"0.103 µM [rising, full curve, poor fit]"
same,AC50,[2],"0.206 µM [rising, full curve, poor fit]"
CC1CCCCC12NC(=O)N(Cn1nnc3ccccc3c1=O)C2=O (stereo not given),cell number change,,0.252%
same,AC50,[2],"0.731 µM [rising, full curve]"
Cc1ccc(S(=O)(=O)N2CCCOC2CNC(=O)C(=O)NCCC2=CCCCC2)cc1 (stereo not given),cell number change,,14.7%
same,AC50,[2],"8.2 µM [rising, partial curve, poor fit]"
C/C(=C\C(=O)c1ccccc1)Nc1ccc2c(c1)OCO2,cell number change,,-23.4%
CSc1cccc(NC(=O)c2c(Cl)cnn2C)c1,cell number change,,-7.45%
same,AC50,[2],"6.51 µM [falling, single point]"
CCN(CCCNC(=O)C1CCCN(S(=O)(=O)CC)C1)c1cccc(C)c1 (stereo not given),cell number change,,-6.42%
same,AC50,[2],"29.1 µM [rising, single point]"
Cc1cc(OCC(=O)NC(C)C)ccc1Cl,cell number change,,11.9%
COCCSc1nnc(NC(=O)c2ccc(NC(=O)C(C)C)cc2)s1,cell number change,,-26.2%
same,AC50,[2],"4.61 µM [falling, single point]"

# Reformatted as tab-separated lines: part of the list above.
compound	measurement	setting	value
Cc1ccc(-c2cc(C(=O)N/N=C/C=C/c3ccccc3)n[nH]2)s1	cell number change		4.32%
same	AC50	[2]	29.1 µM [rising, single point]
Cc1cc(Cl)ccc1Oc1ncc(CN2CCN(c3ccccc3)CC2)s1	cell number change		19.5%
same	AC50	[1]	2.59 µM [rising, single point]
same	AC50	[2]	6.51 µM [rising, single point]
Cc1ccc(S(=O)(=O)c2ccc(Cl)cc2)cc1S(=O)(=O)NC(C(=O)O)C(C)C (stereo not given)	AC50	[1]	0.00517 µM [falling, full curve, poor fit]
CCN(CC)C(=O)C1CCCN(c2ccc([N+](=O)[O-])cc2/C=N/NC(=O)c2cccc(Br)c2)C1 (stereo not given)	cell number change		74.3%

# A different layout for some results above.
compound	measurement	setting	value
CN(C)CCN(C(=O)c1ccc(Br)s1)c1nc2cc3c(cc2s1)OCCO3	AC50	[2]	6.51 µM [falling, single point]
CC(C)(C)NC(=O)COc1coc(CN2CCN(C(=O)c3ccco3)CC2)cc1=O	cell number change		-1.98%
